At least one compound was matched to its structure with a doubt left.
Assays:
[1] = cited from earlier work
[2] = solubility of DFA III (saturated solid concentration) at respective temperature; assay type: physicochemical; settings: X = temperature (°C); fitted to measured levels, R^2=0.999; FIG. 14

OC[C@H]1O[C@@]2(CO[C@]3(CO)O[C@H](CO)[C@@H](O)[C@@H]3O2)[C@@H](O)[C@@H]1O [DFA III, di-D-fructofuranose-2′,1:2,3′-dianhydride]
resistance against heat and acids [1]: highly resistant against heat and acids | Solubility (saturated solid concentration %) "Z", approximate curve [2]: −0.00058X^2+0.39X+48.8%
